Data as given in PubChem BioAssay AID2417 (National Center for Advancing Translational Sciences (NCATS), 2010).
About 4,300 (3.1%) of roughly 140,000 compounds were called active. This list was built around the results that the source calls inconclusive (neither active nor inactive); the mix of calls is not that of the screen.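 How the source made its calls: active means readout at or below -70, meaning at least 70% loss of cells showing the perinucleolar compartment, a nuclear body marking cancer cells; inconclusive means readout between -30 and a set limit; inactive means the rest.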

Assay: High Content Assay for Compounds that inhibit the Assembly of the Perinucleolar Compartment;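 further: plate controls were DMSO wells for no effect and camptothecin positive control wells for full effect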
Conditions: PC3M PTB-GFP, PNC prevalence imaging, 16 h; at 10 µM; stronger effect = lower value
How it was run: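 PC3M cells stably expressing PTB-GFP, 750–1000 cells/well, treated 16 h at 37 °C with compound (23 nl of library stock), in duplicate. After paraformaldehyde fixation and Hoechst stain, imaged at 20x; PNC prevalence scored by image analysis.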

Row | SMILES | activity change (PNC), negative = inhibition
1 | Cc1ccc(S(=O)(=O)N(Cc2ccc(Cl)cc2)c2ccccc2C(=O)NCc2ccco2)cc1 | inconclusive: -43.9%
2 | COc1ccc(OC)c(N=c2oc3cc(O)ccc3cc2C(N)=O)c1 | inactive: 5.3%
3 | CCN(CC)c1ccc(/C=N/NC(=O)Cc2cccs2)cc1 | inactive: 20.4%
4 | O=C(CCCN1C(=O)/C(=C/c2ccccc2Cl)SC1=S)NNC(=O)c1ccccc1 | inconclusive: -57.9%
5 | CSC(=S)N(C)C1CCS(=O)(=O)C1 (centres undefined) | inconclusive: -31.6%
6 | S=c1[nH]ncn1/N=C/c1ccccn1 | inactive: -0.658%
7 | CCOC(=O)CNC(=O)CSc1nc2cccnc2n1C1CCCCC1 | active: -92.5%
8 | O=C(c1ccco1)N1CCN=C1SCc1ccccc1F | inconclusive: -32.9%
9 | CCCCNC(=O)c1onc(CSc2ccc(OC)cc2)c1C(=O)O | inconclusive: -41%
10 | O=C(Cn1cnc2c(nnn2Cc2ccc(Cl)cc2)c1=O)NCC1CCCO1 (centres undefined) | inconclusive: -36.4%
11 | Cc1ccc(C(=O)N2CCN(c3ccc(NC(=S)NC(=O)Cc4ccccc4)cc3)CC2)cc1 | inactive: -13.4%
12 | O=C(NC1CCCCC1)c1nc2c(nnn2Cc2ccccc2Cl)c(=O)[nH]1 | inconclusive: -39.7%
13 | O=C(NCC1(c2ccccc2)CCCC1)C(=O)N1CCOCC1 | inconclusive: -31%
14 | COc1cc(N=c2ssnc2Cl)cc(OC)c1 | inconclusive: -43.2%
15 | Cc1ccc2nc(CSc3nnc(Nc4ccccc4C)s3)cc(=O)n2c1 | inconclusive: -70%
16 | Cc1nnc(SCC(=O)NCc2ccccc2)s1 | inconclusive: -65.6%
17 | CC(Nc1ccccc1)c1cc(Cl)ccc1O (centres undefined) | inconclusive: -59.5%
18 | CCN(CC)S(=O)(=O)c1cc([N+](=O)[O-])ccc1N=Nc1c(O)n(C)c2ccccc12 | inconclusive: -37.8%
19 | CCOC(=O)c1ccc(NC(=O)CCC(=O)OC)cc1 | inactive: 20.2%
20 | CC(=O)Nc1nc2ccccc2n1CCN(C)C | inconclusive: -38.7%
21 | COc1ccc(C(=O)Sc2ccc(Cl)cc2)cc1OC | inconclusive: -30.2%
22 | CN(C(N)=S)c1ccccc1 | inactive: 1.15%
23 | COCCn1c(COc2ccccc2)nnc1SCC(N)=O | inconclusive: -70.7%
24 | CCNc1nc(-c2ccc(Cl)cc2)cs1 | inconclusive: -47.2%

Row | SMILES | activity change (PNC), negative = inhibition
25 | Cc1cc(NC(=O)CSc2nc3ccccc3c(=O)n2C(C)c2ccccc2)no1 (centres undefined) | inconclusive: -64.8%
26 | COC(=O)CN1C2(C#N)CCCCC2CC2CCCCC21C#N (centres undefined) | inconclusive: -34.9%
27 | Cc1ccc(COc2ccsc2-c2n[nH]c(=S)n2C)cc1 | inactive: 5.62%
28 | Cc1ccc(-c2nnc(SCC#CCOC(=O)c3cccs3)o2)cc1 | inconclusive: -35.7%
29 | O=C(CSc1nc(-c2ccc(F)cc2)cc(C(F)(F)F)n1)NCc1cccs1 | inconclusive: -34.8%
30 | Cc1ccc(-c2csc3ncnc(-n4nnc5ccccc54)c23)cc1 | inconclusive: -45.8%
31 | O=[N+]([O-])c1ccc(O)c(/C=N\N=C2c3ccccc3-c3ccccc32)c1 | inconclusive: -31.1%
32 | O=C(NCCO)c1ccc2[nH]c3ccccc3c2c1 | inconclusive: -30.1%
33 | CCN1C(=Nc2ccc(Cl)cc2)SC/C1=C\C(=O)OC | inactive: 5.69%
34 | Cc1ccc(C)c(NC(=O)c2nc(-c3ccccc3)n(-c3ccccc3)n2)c1 | inconclusive: -47.6%
35 | COc1cc2c(cc1NC(=O)C(C)OC(=O)C1CC(=O)N(Cc3ccco3)C1)oc1ccccc12 (centres undefined) | inactive: 37.6%
36 | O=C(NC(Cc1c[nH]c2ccccc12)C(=O)Nc1ccc(F)c([N+](=O)[O-])c1)c1cccs1 (centres undefined) | active: -119%
37 | C/C(=N\NC(=S)NCc1ccccc1)c1ccc(C(C)(C)C)cc1 | inconclusive: -33.4%
38 | C/C(=N/NC(=O)c1sc(=S)n(C)c1C)c1ccccc1 | inactive: 14.1%
39 | CCOc1ccc(-n2c(=O)c3c4c(sc3n(CC(=O)NCc3ccco3)c2=O)CCC4)cc1 | inactive: -19.3%
40 | CCN(CC)C(=O)c1ccc2c(c1)nnn2C | inconclusive: -50.1%
41 | CCCN1CCN(C(=O)c2cn(CC(C)C)c(=O)c3cc(OC)c(OC)cc23)CC1 | inconclusive: -57.1%
42 | O=C(c1cc(-c2ccccc2Cl)on1)N1CCN(C(=O)c2ccco2)CC1 | inconclusive: -32.1%
43 | CN(C)S(=O)(=O)c1cc(C(=O)O)c(NC2CCCCC2)cc1Cl | inactive: 9.47%
44 | COCCNC(=O)COC(=O)/C=C/c1cnc2ccccc2n1 | inconclusive: -54.5%
45 | O=C1c2cccnc2C(Nc2ccccc2)N1Cc1ccco1 (centres undefined) | inactive: 48.6%
46 | COc1ccc(OC)c(N(CC(=O)NCc2ccccn2)S(C)(=O)=O)c1 | inconclusive: -50.1%
47 | Clc1ccc(SCCCCN2CCNCC2)cc1 | inactive: 50.8%
48 | O=C(/C=C/Nc1ccc([N+](=O)[O-])cc1)c1ccc(Br)cc1 | inconclusive: -45.2%

Row | SMILES | activity change (PNC), negative = inhibition
49 | N/N=C(\c1ccccc1)C12CN3CN(CN(C3)C1)C2 | inconclusive: -35%
50 | N#Cc1cc2c(N)c(C(=O)Nc3ccccc3)sc2nc1N | inconclusive: -45%
51 | O=C(NNC1CC(=O)N(c2ccc3c(c2)OCCO3)C1=O)c1ccccc1 (centres undefined) | inactive: 90.5%
52 | Cc1ccc(-n2nnnc2SCc2ccccn2)cc1C | inconclusive: -37.4%
53 | CC(C)(C)n1cnc2cc(NS(=O)(=O)c3ccccc3)ccc21 | inconclusive: -33.9%
54 | O=C(Nc1nnc(Cc2ccccc2)s1)c1ccco1 | inactive: -24.9%
55 | COc1ccc(-c2nc(-c3ccccc3)c(-c3cc([N+](=O)[O-])ccc3C)[nH]2)cc1OC | inactive: -9.63%
56 | CN1/C(=C\C=C(/C#N)C(=O)Nc2ccccc2F)C(C)(C)c2ccccc21 | active: -83%
57 | COc1cnn(-c2cc(Oc3ccc(C)cc3)ncn2)c(=O)c1Cl | inactive: 1.14%
58 | NCCc1nnc(SCc2c(F)cccc2Cl)o1 | active: -103%
59 | O=C(CCC1COc2ccccc2O1)NCc1ccco1 (centres undefined) | inconclusive: -72.9%
60 | COCCCn1c(SCC(=O)n2c(C)c(C)c3ccccc32)nnc1-c1ccoc1C | inconclusive: -53.1%
61 | Nc1cc(N)nc(SCC(=O)NNC(=O)c2ccc(Cl)cc2)n1 | inconclusive: -53.3%
62 | O=C(N/N=C/c1ccc2c(c1)OCO2)c1ccc(Cn2cc([N+](=O)[O-])cn2)o1 | inconclusive: -41.5%
63 | CC1CCN(C(=O)c2ccc(NC(=O)C3CCCO3)cc2)CC1 (centres undefined) | inconclusive: -38.7%
64 | Cc1cccc(NC(=O)Nc2cccc(Oc3c(F)c(F)c(F)c(F)c3F)c2)c1 | inconclusive: -50.1%
65 | COC(=O)NNC(=O)Cc1cccc2ccccc12 | inconclusive: -77.4%
66 | CCCCn1c(SCC(=O)NC(=O)NCc2ccco2)nc2cc(S(N)(=O)=O)ccc21 | inactive: -10.3%
67 | Cc1sc(NC(=O)c2ccc(F)cc2)c(CN2CCCCCC2)c1C | inconclusive: -33.9%
68 | COc1cc(=O)[nH]c(SCc2c(F)c(F)c(F)c(F)c2F)n1 | inactive: 49.3%
69 | CCCc1[nH]nc2c1C(c1ccc(OC)cc1OC)C(C#N)=C(N)O2 (centres undefined) | inactive: 16.8%
70 | COc1ccc(-n2c(=S)[nH]c3cc(C(=O)Nc4cccc(C)c4)ccc3c2=O)cc1 | inconclusive: -75.6%
71 | COC(=O)c1ccc(Cc2ccc(C(=O)OC)o2)o1 | inconclusive: -40.6%
72 | COCCCNCCCCOc1c(Cl)cc(C)cc1Br | inactive: -22.1%

An excerpt of these results, as labelled records.
CCN(CC)C(=O)c1ccc2c(c1)nnn2C
  activity change (PNC), negative = inhibition: inconclusive: -50.1%
CCCN1CCN(C(=O)c2cn(CC(C)C)c(=O)c3cc(OC)c(OC)cc23)CC1
  activity change (PNC), negative = inhibition: inconclusive: -57.1%
O=C(c1cc(-c2ccccc2Cl)on1)N1CCN(C(=O)c2ccco2)CC1
  activity change (PNC), negative = inhibition: inconclusive: -32.1%

Next part.

Row | SMILES | activity change (PNC), negative = inhibition
73 | Cc1cccc(COCC(Cc2ccccc2)N2CCN(C(=O)c3cc(Cl)cc(Cl)c3)CCC2=O)c1 (centres undefined) | inconclusive: -63.3%
74 | CC(OC(=O)c1ccco1)C(=O)NCc1cccs1 (centres undefined) | inconclusive: -44.5%
75 | O=C(NCc1cccnc1)C1c2ccccc2C(=O)N1C1CCCC1 (centres undefined) | active: -108%
76 | Cc1ccc(C(=O)Nc2sc3c(c2C(=O)O)CCCCC3)o1 | inconclusive: -39.4%
77 | CC1=C(C(=O)OC(C)C)C(c2ccccn2)n2ncnc2N1 (centres undefined) | inconclusive: -31.2%
78 | CCOc1cccc(-n2nnnc2-c2ccc(OC)cc2)c1 | active: -83.5%
79 | COc1ccc(C(c2nnnn2CC2CCCO2)N2CCN(c3ccc(F)cc3)CC2)cc1 (centres undefined) | active: -85.9%
80 | Cc1cc(NS(=O)(=O)c2cccs2)no1 | inconclusive: -61.1%
81 | CCOC(=O)C[N+](CC)(CC)CC#Cc1ccccc1 | inconclusive: -46%
82 | O=C(O)c1ccc(C(=O)Nc2cccc(NC(=O)C3CCCO3)c2)cc1 (centres undefined) | inactive: 19.3%
83 | COc1nc(OC)nc(N2CCC(C(=O)NCc3cccs3)CC2)n1 | inactive: 20.6%
84 | Cc1ccc(OCCNC(=O)C2CC(=O)N(c3ccc(C)cc3)C2)cc1 (centres undefined) | inactive: 13.9%
85 | CCC(Oc1ccccc1)C(=O)Nc1nnc(C)s1 (centres undefined) | active: -117%
86 | O=C(CCC1CCCC1)NCc1cccs1 | inactive: 68.4%
87 | Nc1nncn1C(=O)c1ccccc1Cl | inconclusive: -38.6%
88 | COc1cc(/C=C(\C#N)c2nc3ccccc3[nH]2)cc(Br)c1OCc1ccc(F)cc1 | inactive: 0.743%
89 | COc1ccc(OC)c(NC(=O)c2[nH]c(C)c(C(C)=O)c2C)c1 | inconclusive: -39.7%
90 | COc1cccc(C(C#N)N2CCCCC2)c1O (centres undefined) | inactive: -12.8%
91 | Cc1ccc(N2CN(Cc3ccco3)CNC2=S)c(C)c1 | inactive: 7.35%
92 | CCN(C(=O)CSc1nnc2c3ccccc3n(CC)c2n1)C1CCS(=O)(=O)C1 (centres undefined) | inactive: 1.19%
93 | CCOc1ccc(-n2c(C)nc3cc(C(=O)NCc4ccco4)ccc32)cc1 | inactive: 64.7%
94 | CC(=O)Nc1nnc(SCC(=O)NCC2CCCO2)s1 (centres undefined) | active: -100%

Single values from the list:
Under activity change (PNC), negative = inhibition, `COc1nc(OC)nc(N2CCC(C(=O)NCc3cccs3)CC2)n1` shows inactive: 20.6%
Under activity change (PNC), negative = inhibition, `COc1cccc(C(C#N)N2CCCCC2)c1O` (centres undefined) shows inactive: -12.8%
